Measured values taken from article PMC5203670, “Biosynthesis of selenate reductase in Salmonella enterica: critical roles for the signal peptide and DmsD” (Microbiology, 2016).
Results are given in words; binding and its absence hold for the method and conditions named. A result given as binding can be weak or reduced; the word gives no strength. Sequences can lack the tags named with a protein.

Biological target: T1, T25-DmsD fusion protein (S. enterica DmsD attached to the C-terminus of T25) (Salmonella enterica serovar Typhimurium) (UniProt Q8ZPK0)
T1 sequence: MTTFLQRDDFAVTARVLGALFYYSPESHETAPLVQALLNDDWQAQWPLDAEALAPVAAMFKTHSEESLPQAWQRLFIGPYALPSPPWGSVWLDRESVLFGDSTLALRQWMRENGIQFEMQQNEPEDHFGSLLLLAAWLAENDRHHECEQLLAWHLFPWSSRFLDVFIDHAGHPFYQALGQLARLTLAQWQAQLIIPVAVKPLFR
Assay: two-hybrid; bacterial adenylate cyclase two-hybrid (spYnfE-T18 and T25-DmsD) in E. coli MAE01 (ΔcyaA); cultures at 30 °C, β-galactosidase activity in Miller units, shown relative to the native pair

“spYnfE-T18 fusion (42-residue YnfE Tat signal peptide at the N-terminus of T18) (Salmonella enterica serovar Typhimurium) (domain or fragment)” was tested, and the binding was “binds”.
